PubChem BioAssay AID652243 | Drosophila RNAi Screening Center, 2013

Assay: 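Knock-downs that decrease or increase androgen receptor reporter signal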 (primary screen)
System: Drosophila S2R+ cells
Reagents: long dsRNA against Drosophila genes
Time to read-out: 72 h (48 h, then 24 h hormone)
Treatment: synthetic androgen R1881 at 10 nM for 24 h
Measured: 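Per-well raw luminescence of the androgen-driven firefly reporter and of the Renilla control, two replicates each, without normalisation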
Direction: firefly reporter light: higher = more light from androgen-responsive reporter; Renilla control light: higher = more constitutive control signal (cell number, transfection)
Call rule: 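Across duplicate plates, a knock-down whose log firefly/Renilla ratio shifted a set fold down or up from the GFP/LacZ control mean was a hit; the downward cut appears as both 1.5 and 3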
Calls: active = hit: reporter lowered or raised; inactive = no hit
The deposit covers about 24,000 reagents; this is a random part of those that have a named target and a result. In the full data, 246 (1%) are marked active. 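Plates not normalised; calls are printed but the firefly/Renilla ratio behind them is not deposited; fold cut for lowering reported inconsistently.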 Raw values vary from plate to plate and are shown uncorrected. Unmarked entries are inactive. Names joined by + are all predicted targets of the reagent. Not given: the amount of reagent.

Obp56c (Odorant-binding protein 56c) [DRSC06552] — firefly reporter light, replicate 1 = 4.03e5; firefly reporter light, replicate 2 = 3.37e5; Renilla control light, replicate 1 = 2.95e6; Renilla control light, replicate 2 = 2.29e6
Obp56c (Odorant-binding protein 56c) [DRSC22325] — firefly reporter light, replicate 1 = 9.31e5; firefly reporter light, replicate 2 = 9.66e5; Renilla control light, replicate 1 = 1.83e6; Renilla control light, replicate 2 = 1.52e6
Obp56c (Odorant-binding protein 56c) [DRSC28276] — firefly reporter light, replicate 1 = 4.04e5; firefly reporter light, replicate 2 = 6.96e5; Renilla control light, replicate 1 = 1.32e6; Renilla control light, replicate 2 = 2.02e6
Maf1 [DRSC37750] — firefly reporter light, replicate 1 = 9.26e5; firefly reporter light, replicate 2 = 9.96e5; Renilla control light, replicate 1 = 1.97e6; Renilla control light, replicate 2 = 2.63e6
CG9864 [DRSC07346] — firefly reporter light, replicate 1 = 66311; firefly reporter light, replicate 2 = 97955; Renilla control light, replicate 1 = 8.08e5; Renilla control light, replicate 2 = 9.08e5
CG9864 [DRSC28765] — firefly reporter light, replicate 1 = 5.02e5; firefly reporter light, replicate 2 = 7.76e5; Renilla control light, replicate 1 = 1.22e6; Renilla control light, replicate 2 = 1.15e6
Gbeta13F (G protein beta subunit 13F) [DRSC20247] — firefly reporter light, replicate 1 = 1.10e5; firefly reporter light, replicate 2 = 90772; Renilla control light, replicate 1 = 5.68e5; Renilla control light, replicate 2 = 5.38e5
mod (modulo) [DRSC16999] — firefly reporter light, replicate 1 = 1.55e5; firefly reporter light, replicate 2 = 1.15e5; Renilla control light, replicate 1 = 8.21e5; Renilla control light, replicate 2 = 5.97e5
mod (modulo) [DRSC28409] — firefly reporter light, replicate 1 = 3.86e5; firefly reporter light, replicate 2 = 7.33e5; Renilla control light, replicate 1 = 5.03e5; Renilla control light, replicate 2 = 1.19e6
CG13912 [DRSC08381] — firefly reporter light, replicate 1 = 47975; firefly reporter light, replicate 2 = 52396; Renilla control light, replicate 1 = 8.77e5; Renilla control light, replicate 2 = 7.43e5
Crys (Crystallin) [DRSC03294] — firefly reporter light, replicate 1 = 6.19e5; firefly reporter light, replicate 2 = 4.97e5; Renilla control light, replicate 1 = 1.05e6; Renilla control light, replicate 2 = 1.12e6
Crys (Crystallin) [DRSC24638] — firefly reporter light, replicate 1 = 3.40e5; firefly reporter light, replicate 2 = 3.13e5; Renilla control light, replicate 1 = 3.08e5; Renilla control light, replicate 2 = 2.94e5
CG31076 [DRSC16017] — firefly reporter light, replicate 1 = 1.29e5; firefly reporter light, replicate 2 = 2.08e5; Renilla control light, replicate 1 = 1.49e6; Renilla control light, replicate 2 = 2.89e6
CG15042 [DRSC19618] — firefly reporter light, replicate 1 = 3.59e5; firefly reporter light, replicate 2 = 3.80e5; Renilla control light, replicate 1 = 3.17e6; Renilla control light, replicate 2 = 2.53e6
dao (down and out) [DRSC01960] — firefly reporter light, replicate 1 = 1.11e5; firefly reporter light, replicate 2 = 1.82e5; Renilla control light, replicate 1 = 1.96e6; Renilla control light, replicate 2 = 2.29e6
dao (down and out) [DRSC26014] — firefly reporter light, replicate 1 = 3.86e5; firefly reporter light, replicate 2 = 2.62e5; Renilla control light, replicate 1 = 8.05e5; Renilla control light, replicate 2 = 5.79e5
dbf (doublefault) [DRSC02570] — firefly reporter light, replicate 1 = 1.53e5; firefly reporter light, replicate 2 = 1.22e5; Renilla control light, replicate 1 = 1.11e6; Renilla control light, replicate 2 = 1.18e6
dbf (doublefault) [DRSC27207] — firefly reporter light, replicate 1 = 5.17e5; firefly reporter light, replicate 2 = 4.54e5; Renilla control light, replicate 1 = 6.80e5; Renilla control light, replicate 2 = 5.95e5
Lcp65Ac [DRSC11210] — firefly reporter light, replicate 1 = 2.19e5; firefly reporter light, replicate 2 = 1.83e5; Renilla control light, replicate 1 = 2.93e6; Renilla control light, replicate 2 = 2.08e6
Lcp65Ac [DRSC23931] — firefly reporter light, replicate 1 = 7.21e5; firefly reporter light, replicate 2 = 6.63e5; Renilla control light, replicate 1 = 5.78e5; Renilla control light, replicate 2 = 6.61e5
lncRNA:CR42491 + RpL22 [DRSC25025] — firefly reporter light, replicate 1 = 1.35e5; firefly reporter light, replicate 2 = 89852; Renilla control light, replicate 1 = 6.24e5; Renilla control light, replicate 2 = 2.79e5
